Reference: article PMC7819943, “Rice protein-binding microarrays: a tool to detect cis-acting elements near promoter regions in rice”
The list shows a part of the results.

target: T1, OsSMF1 (Oryza sativa, UniProt Q6ZLB0 1-436); experiment: protein-binding microarray (RPBM); PBS, 2% BSA, 51.3 ng/ul salmon testes DNA, 50 uM zinc acetate, 200 nM TF, 25 C, 1 h; high values mean tight binding; settings: protein: recombinant; tags: N-terminal polyhistidine and DsRed monomer fusion (pET32a); chain copies: 2; label: CyDye5-dUTP incorporated in the synthesized complementary strand; 3' TTTTT single-stranded linker to array surface; dsDNA, one strand shown
T1 sequence: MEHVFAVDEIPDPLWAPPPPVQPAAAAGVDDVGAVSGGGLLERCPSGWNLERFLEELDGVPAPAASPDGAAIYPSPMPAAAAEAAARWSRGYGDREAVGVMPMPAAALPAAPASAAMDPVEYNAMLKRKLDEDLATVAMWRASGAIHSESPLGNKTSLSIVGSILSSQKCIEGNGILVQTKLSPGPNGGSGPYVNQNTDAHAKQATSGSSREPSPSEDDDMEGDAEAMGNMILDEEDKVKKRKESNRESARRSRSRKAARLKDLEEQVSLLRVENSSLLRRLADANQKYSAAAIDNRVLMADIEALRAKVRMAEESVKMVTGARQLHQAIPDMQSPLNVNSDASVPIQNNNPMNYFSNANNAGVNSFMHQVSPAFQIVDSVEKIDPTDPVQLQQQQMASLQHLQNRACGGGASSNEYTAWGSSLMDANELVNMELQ
How it was run: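 Per-feature fluorescence intensity (arbitrary units), read on an Axon 4000B scanner, is the binding signal. Transcription factors carrying an N-terminal polyhistidine tag and DsRed fusion were expressed in E. coli BL21-CodonPlus and purified on Ni–NTA. A custom Agilent array, made double-stranded by primer extension with Cy5-dUTP and blocked with 2% BSA, was incubated with 200 nM protein in PBS, 2% BSA, salmon testes DNA and 50 µM zinc acetate at 25 °C for 1 h and then washed.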

Sequence	binding signal
TTCGAGGAGGGGTTCTCCTTCTCCCGCGACGTCACCTACGCGGAGTCACCTAGTGCAG	4400 fluorescence intensity (a.u.)
TAATTAACGGTCGAGTTGCAGCTGATGTGTATAATCATCGCGGAGTCACCTAGTGCAG	4270 fluorescence intensity (a.u.)
TTGAAATTTAAAACTCGGTATTTAATTTAGTCTCATTGCTCGGAGTCACCTAGTGCAG	30700 fluorescence intensity (a.u.)
GAAGAGCGCCACGAGGCCGGCGAGGAAGCTCCGATCGACGCGGAGTCACCTAGTGCAG	3170 fluorescence intensity (a.u.)
GAATCGGGGTCTACAGCTGGCATGGTACGGATCGAACTCGCGGAGTCACCTAGTGCAG	3990 fluorescence intensity (a.u.)
ATAAGATTCATTCATCAGCAACGTTGACGTAAGCTTCCGTCGGAGTCACCTAGTGCAG	5770 fluorescence intensity (a.u.)
CATGGACAATAACACGTGCGTCCCAGGTCATGCTTTACGCCGGAGTCACCTAGTGCAG	4420 fluorescence intensity (a.u.)
AAGTTAAATATCCCTCGTTCGTGTCAGAGACAAGCCAGCACGGAGTCACCTAGTGCAG	3280 fluorescence intensity (a.u.)
CTCTCGGTGTTGCTCACCCCGACCGGCGGGCCGCCGCTCCCGGAGTCACCTAGTGCAG	3420 fluorescence intensity (a.u.)
TCCAACGCCGCTGTCATTTCCAATCTCCCACCCATTTACTCGGAGTCACCTAGTGCAG	16000 fluorescence intensity (a.u.)
GTTGAATGTCTAGTTGACGCAGAAGAATCCTTGTATTCCACGGAGTCACCTAGTGCAG	3240 fluorescence intensity (a.u.)
CTCCCTCACGGTCACGCCGGCTCTCTCCCCTCCTCTCTCCCGGAGTCACCTAGTGCAG	3170 fluorescence intensity (a.u.)
GGTTTCACATTAATCTGATCCTCAACTGTAATATACCAATCGGAGTCACCTAGTGCAG	3220 fluorescence intensity (a.u.)
ATGTATTTTATGACAACAGAGTAAACAATGTGATATACATCGGAGTCACCTAGTGCAG	3220 fluorescence intensity (a.u.)
CATTTGTTTTATTTTAGCATTTGTCACTTACATGTGGGACCGGAGTCACCTAGTGCAG	3180 fluorescence intensity (a.u.)
TGGTTGCAAGTTTCTAGCTATATATGAGTTGTATAATCGGCGGAGTCACCTAGTGCAG	3290 fluorescence intensity (a.u.)
TGTTTAACAGGGTTCATGGCCCCTAATCCATTACTGCCCCCGGAGTCACCTAGTGCAG	4100 fluorescence intensity (a.u.)
CACCGATGCACCCATCCATCCCATCATATGATCCTATCCGCGGAGTCACCTAGTGCAG	19000 fluorescence intensity (a.u.)
CACTTGGTCGGTGCACAAGGACGTCACCAAGTACGCGTCACGGAGTCACCTAGTGCAG	8230 fluorescence intensity (a.u.)
TTTATTTATATTAGACTTTTCGGCTCAGACTCATAAGCATCGGAGTCACCTAGTGCAG	19800 fluorescence intensity (a.u.)
GGGACTAGTGTGTCATGGGTGTAGCTGTACATCTACTTTCCGGAGTCACCTAGTGCAG	5760 fluorescence intensity (a.u.)
TCGGAATGACTCAACCAACTCAGTTTGGTATAACCGACTTCGGAGTCACCTAGTGCAG	4880 fluorescence intensity (a.u.)
ACCAAGATCCTGTGGATGAGGAGGATGCGTGTGCTCAGGCCGGAGTCACCTAGTGCAG	3960 fluorescence intensity (a.u.)

Individual results from the results shown.
binding signal, TCGGAATGACTCAACCAACTCAGTTTGGTATAACCGACTTCGGAGTCACCTAGTGCAG is entered as 4880 fluorescence intensity (a.u.)
binding signal, TTTATTTATATTAGACTTTTCGGCTCAGACTCATAAGCATCGGAGTCACCTAGTGCAG is entered as 19800 fluorescence intensity (a.u.)
